We go through 6 molecules from publication PMC11187125.

Chains of the proteins cited; added tags and fusions are not shown. Lines headed by an entry give the natural chain unless they say otherwise; changes in a name come on top.
UniProt F4JKL1: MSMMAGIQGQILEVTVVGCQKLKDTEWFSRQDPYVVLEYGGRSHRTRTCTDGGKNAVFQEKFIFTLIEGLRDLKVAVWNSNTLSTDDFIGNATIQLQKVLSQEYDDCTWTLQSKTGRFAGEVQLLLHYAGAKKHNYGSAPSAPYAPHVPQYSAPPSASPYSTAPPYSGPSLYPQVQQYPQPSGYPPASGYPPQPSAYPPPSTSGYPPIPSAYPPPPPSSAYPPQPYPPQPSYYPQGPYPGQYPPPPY

Results are given in words; binding and its absence hold for the method and conditions named. For some assays here: Binding can be weak; no strength is given. Tags and fused reporters may be left off the sequences shown.

Assay [1] deals with T1, GBD-Myc-ATG8i (Arabidopsis) (UniProt Q9LRP7).
T1 sequence: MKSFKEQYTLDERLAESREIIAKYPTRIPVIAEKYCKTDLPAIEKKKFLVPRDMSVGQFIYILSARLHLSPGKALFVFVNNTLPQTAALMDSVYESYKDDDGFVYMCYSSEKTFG
Nature of the assay: two-hybrid; yeast strain Y8800; GAD-fused CaLB1 variants with GBD-ATG8i; growth on medium lacking leucine, tryptophan and histidine with or without 1 mM 3-AT.

A further assay concerns the target T2, GST-ALIX (Arabidopsis) (UniProt F4HXZ1).
T2 sequence: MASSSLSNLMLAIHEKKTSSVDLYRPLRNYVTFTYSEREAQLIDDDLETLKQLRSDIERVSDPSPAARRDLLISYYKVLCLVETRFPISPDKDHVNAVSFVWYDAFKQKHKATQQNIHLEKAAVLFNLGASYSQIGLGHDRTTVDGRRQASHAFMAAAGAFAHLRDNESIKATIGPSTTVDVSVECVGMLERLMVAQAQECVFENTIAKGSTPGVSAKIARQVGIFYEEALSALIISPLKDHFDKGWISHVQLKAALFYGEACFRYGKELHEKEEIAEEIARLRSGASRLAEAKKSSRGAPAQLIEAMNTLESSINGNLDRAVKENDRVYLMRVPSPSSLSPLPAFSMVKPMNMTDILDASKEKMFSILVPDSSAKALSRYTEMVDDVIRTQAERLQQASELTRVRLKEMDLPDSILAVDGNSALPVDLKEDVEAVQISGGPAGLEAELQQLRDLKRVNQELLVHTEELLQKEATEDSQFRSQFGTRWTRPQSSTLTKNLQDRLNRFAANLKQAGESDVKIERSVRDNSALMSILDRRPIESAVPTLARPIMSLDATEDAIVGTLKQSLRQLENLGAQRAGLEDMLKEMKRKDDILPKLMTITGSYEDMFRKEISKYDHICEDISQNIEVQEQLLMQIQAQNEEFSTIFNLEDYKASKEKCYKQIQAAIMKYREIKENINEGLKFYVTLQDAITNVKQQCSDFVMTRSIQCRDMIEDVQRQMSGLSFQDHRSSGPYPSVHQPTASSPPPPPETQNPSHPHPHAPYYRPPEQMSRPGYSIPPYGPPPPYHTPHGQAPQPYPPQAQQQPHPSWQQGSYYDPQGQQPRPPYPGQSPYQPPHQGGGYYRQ
Nature of the assay: pull-down; glutathione agarose loaded with GST-ALIX, incubated with 75 pmol of His-tagged proteins for 2 h at 4 °C in buffer A (50 mM Tris, 150 mM NaCl, 10% glycerol, 0.1% Triton X-100, pH 7.5); eluted with 50 mM glutathione; anti-GST and anti-His immunoblots; both purified. In general terms: Immunoblotting shows a protein as a band on a membrane.

For assay [2], the target named is T3, 6xHis-T7tag-ATG8f (Arabidopsis) (UniProt Q8VYK7).
T3 sequence: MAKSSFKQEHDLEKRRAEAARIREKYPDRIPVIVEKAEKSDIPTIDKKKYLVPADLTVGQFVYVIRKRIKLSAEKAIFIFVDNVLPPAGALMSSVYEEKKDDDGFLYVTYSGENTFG
Nature of the assay: pull-down; TALON beads loaded with 6xHis-ATG8s, incubated with 100 pmol of CaLB1-GST at 4 °C for 1 h in Talon Buffer (50 mM Na2HPO4, 300 mM NaCl, 10% glycerol, pH 7.0); eluted with 150 mM imidazole; anti-GST immunoblot; both purified.

The target of assay [3] is T4, 6xHis-T7tag-ATG8i (Arabidopsis) (UniProt Q9LRP7).
T4 sequence: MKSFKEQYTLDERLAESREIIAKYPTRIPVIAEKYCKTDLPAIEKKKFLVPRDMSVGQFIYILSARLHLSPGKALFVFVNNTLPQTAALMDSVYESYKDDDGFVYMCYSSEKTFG
The assay is described as above.

The target in assay [4] is T5, 6xHis-T7tag-ATG8a (Arabidopsis) (UniProt Q8LEM4).
T5 sequence: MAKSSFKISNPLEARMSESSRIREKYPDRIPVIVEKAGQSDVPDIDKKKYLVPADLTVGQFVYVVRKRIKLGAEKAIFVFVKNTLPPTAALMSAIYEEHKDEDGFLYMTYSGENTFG
The description is as above.

The target in assay [5] is CaLB1-6xHis (Arabidopsis) (UniProt F4JKL1). Nature of the assay: pull-down; TALON beads loaded with CaLB1-6xHis, incubated with 20 pmol of MBP-fused proteins in buffer A' (50 mM Tris, 100 mM NaCl, 10% glycerol, 0.1% Triton X-100, pH 7.5), 4 °C; eluted with 400 mM imidazole; anti-MBP and anti-His immunoblots; both purified.

Take GAD-HA-CaLB1[Y205A] (Arabidopsis): in assay [1], the binding entry is “binds”.

CaLB1-6xHis (from UniProt F4JKL1): the binding result in the assay with GST-ALIX (Arabidopsis) was “binds”.

As for GAD-HA-CaLB1(FL) (Arabidopsis), the binding entry in assay [1] is “binds”. Consider CaLB1-GST (from UniProt F4JKL1), for which the binding entry in assay [2], in assay [3] and in assay [4] was “binds” in each case. For the molecule GAD-HA-CaLB1[Y172A] (Arabidopsis), the binding entry in assay [1] was “binds”.

B1: MBP-ALIX (BRO1) (domain or fragment, UniProt F4HXZ1 5-403)
chain: SLSNLMLAIHEKKTSSVDLYRPLRNYVTFTYSEREAQLIDDDLETLKQLRSDIERVSDPSPAARRDLLISYYKVLCLVETRFPISPDKDHVNAVSFVWYDAFKQKHKATQQNIHLEKAAVLFNLGASYSQIGLGHDRTTVDGRRQASHAFMAAAGAFAHLRDNESIKATIGPSTTVDVSVECVGMLERLMVAQAQECVFENTIAKGSTPGVSAKIARQVGIFYEEALSALIISPLKDHFDKGWISHVQLKAALFYGEACFRYGKELHEKEEIAEEIARLRSGASRLAEAKKSSRGAPAQLIEAMNTLESSINGNLDRAVKENDRVYLMRVPSPSSLSPLPAFSMVKPMNMTDILDASKEKMFSILVPDSSAKALSRYTEMVDDVIRTQAERLQQASELT
For B1, the binding result in assay [5] is “no binding (tested: 20 pmol)”.
